Measurements from patent US8673841B2 (Ferring B.V., priority 2008, dated 2014).

Assay: general procedure: peptide synthesis; Rink Amide AM resin or MBHA resin; DIC/HOBt/DMF (Fmoc amino acids); DIC or DCC in DCM (Boc amino acids)
Conditions: whole synthesis

## [4-PicGly^7]dOT
  isolated mass: 348.7 mg
Analytical HPLC, Vydac C18, 1100 Agilent, scale of the general procedure 0.87 mmol, 0.94 mmol
  final HPLC purity: 99.9%
Based on the loading of the starting resin and assuming 85% peptide content, scale of the general procedure 0.87 mmol, 0.94 mmol
  isolated yield: ˜44%
